Test [1] has as its target T1, human PTPδ Ig1-3(+/+) (human) (UniProt P23468).
T1 sequence: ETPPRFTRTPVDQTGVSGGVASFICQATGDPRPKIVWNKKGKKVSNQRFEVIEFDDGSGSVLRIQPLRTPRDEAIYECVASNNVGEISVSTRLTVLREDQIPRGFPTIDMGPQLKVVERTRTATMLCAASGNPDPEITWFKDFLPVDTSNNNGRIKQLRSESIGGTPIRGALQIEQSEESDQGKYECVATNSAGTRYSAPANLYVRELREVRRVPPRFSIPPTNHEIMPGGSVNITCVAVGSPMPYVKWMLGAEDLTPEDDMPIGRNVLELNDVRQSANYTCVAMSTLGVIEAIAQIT
Briefly: SEC; partners incubated at a 1:1 molar ratio at 4°C for 3 h; Superdex 200 10/300 GL, 20 mM Tris-HCl pH 8.0, 50 mM NaCl; complex seen as forward shift of the peak, fractions on silver-stained SDS-PAGE; also pre-formed complexes with 2-fold molar excess of chondroitin sulfate; both purified.

The chains behind the UniProt entries cited, without tags or fusion partners. Where a name states a change or a piece, a line headed by the entry shows the natural chain unless it says otherwise.
UniProt Q13332: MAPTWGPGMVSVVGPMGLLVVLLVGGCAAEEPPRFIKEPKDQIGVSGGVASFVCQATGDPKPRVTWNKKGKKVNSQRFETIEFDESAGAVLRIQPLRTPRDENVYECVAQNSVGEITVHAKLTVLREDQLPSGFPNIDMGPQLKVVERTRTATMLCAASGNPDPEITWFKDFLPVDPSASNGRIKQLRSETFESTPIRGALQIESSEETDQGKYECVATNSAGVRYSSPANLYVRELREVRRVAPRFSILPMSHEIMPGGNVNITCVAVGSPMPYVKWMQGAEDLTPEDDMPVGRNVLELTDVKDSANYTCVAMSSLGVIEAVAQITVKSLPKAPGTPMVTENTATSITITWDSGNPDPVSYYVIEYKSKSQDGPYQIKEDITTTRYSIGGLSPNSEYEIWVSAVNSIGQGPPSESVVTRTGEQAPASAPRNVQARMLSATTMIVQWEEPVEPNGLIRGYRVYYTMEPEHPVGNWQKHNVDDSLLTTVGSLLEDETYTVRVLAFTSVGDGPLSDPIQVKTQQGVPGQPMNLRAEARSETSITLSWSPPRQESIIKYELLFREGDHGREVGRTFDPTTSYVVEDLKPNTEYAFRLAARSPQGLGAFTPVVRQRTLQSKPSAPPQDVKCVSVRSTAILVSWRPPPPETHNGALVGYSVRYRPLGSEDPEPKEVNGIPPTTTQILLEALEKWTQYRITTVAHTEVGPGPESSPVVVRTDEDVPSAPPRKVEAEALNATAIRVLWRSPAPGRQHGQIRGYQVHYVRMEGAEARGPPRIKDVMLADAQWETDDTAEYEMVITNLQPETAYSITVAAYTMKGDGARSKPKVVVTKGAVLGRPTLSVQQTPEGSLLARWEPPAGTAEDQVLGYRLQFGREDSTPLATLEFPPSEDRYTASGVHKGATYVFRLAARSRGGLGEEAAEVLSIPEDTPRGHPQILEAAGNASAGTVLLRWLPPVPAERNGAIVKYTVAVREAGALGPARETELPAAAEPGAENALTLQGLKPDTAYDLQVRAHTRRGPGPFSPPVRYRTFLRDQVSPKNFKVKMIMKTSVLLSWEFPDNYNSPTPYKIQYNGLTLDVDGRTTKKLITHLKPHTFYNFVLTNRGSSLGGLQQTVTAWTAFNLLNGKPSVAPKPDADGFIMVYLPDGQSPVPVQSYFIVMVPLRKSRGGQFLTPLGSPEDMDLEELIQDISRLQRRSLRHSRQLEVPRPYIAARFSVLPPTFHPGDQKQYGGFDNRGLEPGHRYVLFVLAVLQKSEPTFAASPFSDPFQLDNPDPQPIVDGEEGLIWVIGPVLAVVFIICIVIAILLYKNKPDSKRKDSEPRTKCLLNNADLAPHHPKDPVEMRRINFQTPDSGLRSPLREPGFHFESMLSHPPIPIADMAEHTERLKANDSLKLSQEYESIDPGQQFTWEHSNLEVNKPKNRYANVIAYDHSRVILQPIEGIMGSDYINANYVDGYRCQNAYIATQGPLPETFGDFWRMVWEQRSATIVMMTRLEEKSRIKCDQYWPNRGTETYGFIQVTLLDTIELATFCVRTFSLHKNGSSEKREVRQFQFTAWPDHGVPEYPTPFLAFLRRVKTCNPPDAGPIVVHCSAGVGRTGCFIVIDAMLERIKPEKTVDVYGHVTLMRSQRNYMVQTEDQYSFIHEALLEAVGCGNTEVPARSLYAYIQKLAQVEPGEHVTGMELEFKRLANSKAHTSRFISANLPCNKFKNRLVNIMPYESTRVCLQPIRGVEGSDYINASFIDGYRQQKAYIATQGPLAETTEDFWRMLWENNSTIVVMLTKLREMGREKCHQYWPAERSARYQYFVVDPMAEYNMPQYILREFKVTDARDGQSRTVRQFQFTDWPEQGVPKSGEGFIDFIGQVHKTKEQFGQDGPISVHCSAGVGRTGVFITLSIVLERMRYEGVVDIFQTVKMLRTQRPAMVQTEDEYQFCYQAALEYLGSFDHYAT
UniProt Q9NPH3: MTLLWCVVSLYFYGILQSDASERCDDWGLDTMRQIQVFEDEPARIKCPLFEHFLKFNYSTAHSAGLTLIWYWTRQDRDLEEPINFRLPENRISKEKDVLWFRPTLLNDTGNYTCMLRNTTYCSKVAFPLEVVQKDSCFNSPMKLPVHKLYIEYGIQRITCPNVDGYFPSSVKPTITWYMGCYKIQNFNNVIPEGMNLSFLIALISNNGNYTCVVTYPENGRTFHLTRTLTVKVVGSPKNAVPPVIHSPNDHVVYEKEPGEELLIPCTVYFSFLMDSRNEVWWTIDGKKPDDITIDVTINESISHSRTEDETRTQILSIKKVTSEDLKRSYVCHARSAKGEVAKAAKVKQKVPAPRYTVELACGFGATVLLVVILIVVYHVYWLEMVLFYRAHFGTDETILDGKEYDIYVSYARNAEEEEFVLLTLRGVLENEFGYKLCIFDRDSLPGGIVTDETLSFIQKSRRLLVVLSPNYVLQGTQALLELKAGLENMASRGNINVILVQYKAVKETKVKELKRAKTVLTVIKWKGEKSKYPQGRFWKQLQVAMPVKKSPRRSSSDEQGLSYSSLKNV

The target in test [2] is T1, human PTPδ Ig1-3(+/+) (human). As to the kind of experiment: condition: only with a 2-fold molar excess of heparan sulfate; SEC; with heparan sulfate: pre-formed complex incubated with a 2-fold molar excess of HS at 4°C for 3 h, or LAR-RPTP Ig1-3 pre-incubated with a 2-fold molar excess of HS and then with the partner; Superdex 200 10/300 GL, 10 mM Tris-HCl pH 8.0, 50 mM NaCl; both purified.

For test [3], the target named is PTPσ Ig1-3(+/+) (UniProt Q13332). Briefly: SEC; partners incubated at a 1:1 molar ratio at 4°C for 3 h; Superdex 200 10/300 GL, 20 mM Tris-HCl pH 8.0, 50 mM NaCl; complex seen as forward shift of the peak, fractions on silver-stained SDS-PAGE; also pre-formed complexes with 2-fold molar excess of chondroitin sulfate; both purified.
For test [4] the target is unchanged. As to the kind of experiment: condition: only with a 2-fold molar excess of heparan sulfate; SEC; with heparan sulfate: pre-formed complex incubated with a 2-fold molar excess of HS at 4°C for 3 h, or LAR-RPTP Ig1-3 pre-incubated with a 2-fold molar excess of HS and then with the partner; Superdex 200 10/300 GL, 10 mM Tris-HCl pH 8.0, 50 mM NaCl; both purified.

These are yes or no findings as the source states them, for the method shown. For some of these results: Binding calls can cover weak binding; strength is not graded here.

With “IL-1RAcP Ig1-3 (from UniProt Q9NPH3) (domain or fragment)”, the binding entry in test [1] was “binds”; in test [2], “no binding”.

B1: Slitrk1 LRR1 (domain or fragment, UniProt Q96PX8 20-264)
chain: TGDVCKEKICSCNEIEGDLHVDCEKKGFTSLQRFTAPTSQFYHLFLHGNSLTRLFPNEFANFYNAVSLHMENNGLHEIVPGAFLGLQLVKRLHINNNKIKSFRKQTFLGLDDLEYLQADFNLLRDIDPGAFQDLNKLEVLILNDNLISTLPANVFQYVPITHLDLRGNRLKTLPYEEVLEQIPGIAEILLEDNPWDCTCDLLSLKEWLENIPKNALIGRVVCEAPTRLQGKDLNETTEQDLCPLK
On to B1, for which the binding result with PTPσ Ig1-3(+/+) [3] is listed as “binds”; with PTPσ Ig1-3(+/+) [4], “no binding”.

Values taken from publication PMC5645493, “LAR-RPTP Clustering Is Modulated by Competitive Binding between Synaptic Adhesion Partners and Heparan Sulfate” (Frontiers in Molecular Neuroscience, 2017).
